Test results as given in article PMC6048100.
No constants are given. Whether binding was seen depends on the method and setting. In cells and extracts the contact can be indirect. Here binding means that the protein was enriched with, or labelled near, the bait; the list need not be complete. Where a sequence is shown, tags or fusion partners need not be part of it.

Chains of the proteins cited; added tags and fusions are not shown.
UniProt P40763: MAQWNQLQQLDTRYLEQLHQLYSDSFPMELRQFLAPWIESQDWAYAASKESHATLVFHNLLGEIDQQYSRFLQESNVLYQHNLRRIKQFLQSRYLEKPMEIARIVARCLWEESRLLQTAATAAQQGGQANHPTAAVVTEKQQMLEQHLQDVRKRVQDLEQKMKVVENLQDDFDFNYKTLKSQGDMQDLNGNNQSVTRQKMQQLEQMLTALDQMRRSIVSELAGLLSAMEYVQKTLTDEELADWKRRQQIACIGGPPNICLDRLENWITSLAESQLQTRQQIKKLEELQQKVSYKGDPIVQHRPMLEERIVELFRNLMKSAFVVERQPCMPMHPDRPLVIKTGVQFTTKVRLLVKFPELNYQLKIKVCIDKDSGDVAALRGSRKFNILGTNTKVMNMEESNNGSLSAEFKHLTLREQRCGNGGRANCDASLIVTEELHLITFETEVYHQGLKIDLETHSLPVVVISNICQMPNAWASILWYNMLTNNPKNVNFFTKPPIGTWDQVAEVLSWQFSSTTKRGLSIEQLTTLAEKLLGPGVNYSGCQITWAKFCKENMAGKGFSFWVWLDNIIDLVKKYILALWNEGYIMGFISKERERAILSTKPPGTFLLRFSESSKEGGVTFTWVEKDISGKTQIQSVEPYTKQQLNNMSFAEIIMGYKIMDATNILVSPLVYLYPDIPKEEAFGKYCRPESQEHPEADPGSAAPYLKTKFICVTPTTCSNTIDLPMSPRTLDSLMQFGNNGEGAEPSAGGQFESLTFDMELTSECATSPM

Biological target: T1, Act1-Flag (UniProt Q8N7N6)
T1 sequence: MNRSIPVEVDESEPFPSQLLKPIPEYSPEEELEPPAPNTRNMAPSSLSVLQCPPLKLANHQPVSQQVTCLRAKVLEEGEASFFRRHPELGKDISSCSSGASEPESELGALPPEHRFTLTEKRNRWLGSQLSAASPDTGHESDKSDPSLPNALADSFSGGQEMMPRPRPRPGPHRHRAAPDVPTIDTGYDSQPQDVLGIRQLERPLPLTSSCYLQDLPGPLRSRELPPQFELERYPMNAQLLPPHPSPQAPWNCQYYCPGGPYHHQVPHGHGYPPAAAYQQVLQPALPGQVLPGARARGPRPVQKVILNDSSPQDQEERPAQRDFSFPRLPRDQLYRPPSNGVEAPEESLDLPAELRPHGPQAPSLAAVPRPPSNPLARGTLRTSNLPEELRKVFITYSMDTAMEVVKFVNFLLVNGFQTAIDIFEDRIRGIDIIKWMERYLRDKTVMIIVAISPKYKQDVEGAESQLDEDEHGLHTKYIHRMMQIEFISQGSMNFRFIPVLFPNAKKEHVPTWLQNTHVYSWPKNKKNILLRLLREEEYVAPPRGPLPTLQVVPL
Test: affinity purification with mass spectrometry; immunoprecipitation via anti-Flag beads from lysates of HeLa cells transiently transfected to express Act1-Flag

binding: binds
Substance: STAT3 (from UniProt P40763 1-770)
